Source: patent publication US20230218712A1, “TOPICAL APPLICATION OF POLYPEPTIDE IN THE TREATMENT OF SKIN DAMAGE” (WUHAN YICHENG BIOTECHNOLOGY CO., LTD., priority 2020, published 2023)
At least one peptide structure holds a part that was inferred or is arguable (an end, a ring closure or a residue). No end group written: not given here.

What was measured:
rat burn model = experiment: rat scald (deep II degree burn) model, topical treatment for 14 days; type: in vivo, SD rats; conditions: after 14 days of treatment
HaCAT cells = experiment: Cell Differentiation Experiment; type: cell-based, human; conditions: 10 μL polypeptide (10 mg/ml) for 48 h; photo observation

Sequence: MPYSTELIFYIEMDP [polypeptide, Met Pro Tyr Ser Thr Glu Leu Ile Phe Tyr Ile Glu Met Asp Pro]
- promotion of wound healing (conclusion from photo observation) (rat burn model): obviously promote the wound healing of full-thickness skin defects in rats
- differentiation status of HaCAT cells (HaCAT cells): some cells are differentiated
